At least one compound was matched to its structure with a doubt left.
Tested on: phosphorylated p70S6K (Thr389)
Test: Phosphorylated p70S6K (Thr389) level in insulin-stimulated C3H10T1/2 cells (Western blot)
Format: cell-based, Mouse
Conditions: 100 nM
Protocol: Mouse embryonic mesenchymal stem cells, C3H10T1/2 cells, (ATCC, USA, #CCL-226), were cultured in DMEM (low glucose […], Gibco), supplemented with 10% FBS and 2 mM L-Glutamine (Gibco). 2×10^5 cells /well were seeded in 6-well plate and grown to 80% confluency. Cells were treated with either rapamycin (Tocris, UK, #1292) at 100 nM, EGCG (TEAVIGO®, DSM Nutritional Product ltd. Switzerland) at 10 microM , resveratrol (DSM Nutritional Products Ltd. Switzerland) at 0.1, 1, 10 μM or combination of EGCG (10 microM) and resveratrol (0.1,1, 10 μM) for 30 min, then stimulated with insulin (Sigma, Switzerland) at 100 nM for 30 min. Cells were washed twice with PBS and harvested in 0.4 ml NETT buffer (0.1 M NaCl, 10 mM Tris-HCL (pH 7.6), 1 mM EDTA, 1% Triton X-100, pH 7.6 ). Cell lysates were sonicated and centrifuged at 14,000 rpm for 2 min. Protein concentration was determined using BCA assay (PIERCE, USA #23223). 10 microgram whole cell extracts were loaded on SDS-gel (10-20% Tricine gradient gel) and blotted on nitrocellulose membrane (0.2 μm pore, Invitrogen, #LC2000 ). […] The signals were detected using ECL plus Western Blotting Detection System (Amersham Biosciences; RPN2132). […] The signals were quantified by using GeneTools software (Syngene, UK). […]

For CO[C@H]1C[C@@H]2CC[C@@H](C)[C@@](O)(O2)C(=O)C(=O)N2CCCC[C@H]2C(=O)O[C@H]([C@H](C)C[C@@H]2CC[C@@H](O)[C@H](OC)C2)CC(=O)[C@H](C)/C=C(\C)[C@@H](O)[C@@H](OC)C(=O)[C@H](C)C[C@H](C)/C=C/C=C/C=C/1C [Rapa, rapamycin, reference compound], the “effect on phosphorylated p70S6K (Thr389) amount (in words)” value was “totally abolished”.

Source: patent US20080262081A1, “Novel Use of Nutraceutical Compositions Comprising Resveratrol” (priority 2005, published 2008)
